This data set has as its system fibrinogen (Homo sapiens). The experiment in a line: SPR. As to conditions: quinoline-8-boronic acid-modified T (B-TTP) replacing T outside the primer region; biotin-aptamer on streptavidin chip; purified native protein; label: 32P (filtration) or 5'-biotin (SPR); single-stranded DNA.

Chains of the proteins cited; added tags and fusions are not shown. Chains listed by the source or under a name are the forms on record and can include a tag or linker.
fibrinogen (Homo sapiens), one chain, as listed by the source, chain 3 of 3: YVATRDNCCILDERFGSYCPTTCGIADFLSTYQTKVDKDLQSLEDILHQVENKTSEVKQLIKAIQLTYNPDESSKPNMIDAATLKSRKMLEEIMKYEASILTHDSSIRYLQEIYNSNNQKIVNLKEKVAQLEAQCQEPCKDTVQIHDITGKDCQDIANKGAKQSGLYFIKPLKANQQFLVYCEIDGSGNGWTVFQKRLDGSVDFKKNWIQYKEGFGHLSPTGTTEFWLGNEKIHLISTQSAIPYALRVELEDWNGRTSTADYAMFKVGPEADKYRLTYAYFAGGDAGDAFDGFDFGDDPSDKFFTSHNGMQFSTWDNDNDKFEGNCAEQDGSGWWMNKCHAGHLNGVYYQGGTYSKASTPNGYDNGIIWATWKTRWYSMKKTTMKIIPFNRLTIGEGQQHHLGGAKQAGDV
fibrinogen (Homo sapiens), one chain, as listed by the source, chain 2 of 3: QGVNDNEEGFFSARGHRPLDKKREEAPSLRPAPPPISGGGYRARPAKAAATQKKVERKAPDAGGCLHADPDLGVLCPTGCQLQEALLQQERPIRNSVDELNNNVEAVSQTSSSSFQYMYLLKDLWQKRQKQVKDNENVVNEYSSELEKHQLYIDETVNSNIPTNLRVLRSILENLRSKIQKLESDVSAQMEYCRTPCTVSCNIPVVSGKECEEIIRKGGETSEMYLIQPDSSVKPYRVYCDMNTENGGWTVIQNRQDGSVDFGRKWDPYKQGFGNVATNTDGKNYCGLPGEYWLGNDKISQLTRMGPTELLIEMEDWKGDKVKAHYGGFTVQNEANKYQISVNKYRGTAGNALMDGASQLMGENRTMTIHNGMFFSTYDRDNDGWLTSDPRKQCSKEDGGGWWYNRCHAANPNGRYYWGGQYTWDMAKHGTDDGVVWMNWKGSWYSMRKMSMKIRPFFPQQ
fibrinogen (Homo sapiens), one chain, as listed by the source, chain 1 of 3: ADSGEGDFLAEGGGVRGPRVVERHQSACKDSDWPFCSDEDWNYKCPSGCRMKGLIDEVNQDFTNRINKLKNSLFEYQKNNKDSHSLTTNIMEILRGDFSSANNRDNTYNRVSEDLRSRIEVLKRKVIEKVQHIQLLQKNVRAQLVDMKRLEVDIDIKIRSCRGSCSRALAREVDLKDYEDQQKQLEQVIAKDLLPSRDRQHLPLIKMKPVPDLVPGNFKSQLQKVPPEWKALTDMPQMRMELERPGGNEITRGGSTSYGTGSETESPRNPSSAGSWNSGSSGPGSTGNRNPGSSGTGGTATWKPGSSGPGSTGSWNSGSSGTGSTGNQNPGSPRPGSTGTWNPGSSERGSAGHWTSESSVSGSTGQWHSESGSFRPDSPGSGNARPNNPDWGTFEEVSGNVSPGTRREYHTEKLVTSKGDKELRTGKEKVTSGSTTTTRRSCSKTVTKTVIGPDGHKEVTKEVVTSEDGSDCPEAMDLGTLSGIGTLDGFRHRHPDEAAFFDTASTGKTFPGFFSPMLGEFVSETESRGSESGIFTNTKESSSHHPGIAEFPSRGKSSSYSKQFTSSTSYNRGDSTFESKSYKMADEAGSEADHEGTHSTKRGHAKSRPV

The exact form of at least one protein or probe is not confirmed.

The Kd is the free concentration of one partner at which half of the binding sites on the other are occupied at equilibrium, for simple one-to-one binding. Low values mean higher affinity, high ones lower affinity. In turn, “CCTTCGTTGTCTGCCTTCGTAGGACCGCAGACATCGACGCAGGGAAATTCCGCAAGTCCAGCCAAATGCCACCCTTCAGAATTCGCACCA [85B B-TTP (114O)]” had a dissociation constant (Kd) of 10.1 nM.
